Data set [1] addresses glucocorticoid receptor (GR), SH-SY5Y nuclear extract (human) (UniProt P04150). The experiment in a line: competition with a labelled probe. The following applies: Dex-treated cells, EMSA: 20 fmol biotin probe with 2.0 uM GRα or 10 ug nuclear extract, buffer as Hay et al. 2005 with EDTA replaced by 50 uM ZnSO4, competitor 100x, 6% native gel, protein in an extract.
Data set [2] has the same target. Description: EMSA supershift (complex reduced by anti-GR). To be noted: Dex-treated cells; EMSA: 20 fmol biotin probe with 2.0 uM GRα or 10 ug nuclear extract; buffer as Hay et al. 2005 with EDTA replaced by 50 uM ZnSO4; competitor 100x; 6% native gel; protein in an extract; label: 3' biotin (unlabelled as competitor).
The target is the same in data set [3]. The experiment in a line: EMSA. To be noted: Dex-treated cells, reduced vs 2GR, n=3; EMSA: 20 fmol biotin probe with 2.0 uM GRα or 10 ug nuclear extract; buffer as Hay et al. 2005 with EDTA replaced by 50 uM ZnSO4; competitor 100x; 6% native gel; protein in an extract; label: 3' biotin.
The target in data set [4] is T1, glucocorticoid receptor alpha (GRα) (human) (UniProt P04150).
T1 sequence (looked up): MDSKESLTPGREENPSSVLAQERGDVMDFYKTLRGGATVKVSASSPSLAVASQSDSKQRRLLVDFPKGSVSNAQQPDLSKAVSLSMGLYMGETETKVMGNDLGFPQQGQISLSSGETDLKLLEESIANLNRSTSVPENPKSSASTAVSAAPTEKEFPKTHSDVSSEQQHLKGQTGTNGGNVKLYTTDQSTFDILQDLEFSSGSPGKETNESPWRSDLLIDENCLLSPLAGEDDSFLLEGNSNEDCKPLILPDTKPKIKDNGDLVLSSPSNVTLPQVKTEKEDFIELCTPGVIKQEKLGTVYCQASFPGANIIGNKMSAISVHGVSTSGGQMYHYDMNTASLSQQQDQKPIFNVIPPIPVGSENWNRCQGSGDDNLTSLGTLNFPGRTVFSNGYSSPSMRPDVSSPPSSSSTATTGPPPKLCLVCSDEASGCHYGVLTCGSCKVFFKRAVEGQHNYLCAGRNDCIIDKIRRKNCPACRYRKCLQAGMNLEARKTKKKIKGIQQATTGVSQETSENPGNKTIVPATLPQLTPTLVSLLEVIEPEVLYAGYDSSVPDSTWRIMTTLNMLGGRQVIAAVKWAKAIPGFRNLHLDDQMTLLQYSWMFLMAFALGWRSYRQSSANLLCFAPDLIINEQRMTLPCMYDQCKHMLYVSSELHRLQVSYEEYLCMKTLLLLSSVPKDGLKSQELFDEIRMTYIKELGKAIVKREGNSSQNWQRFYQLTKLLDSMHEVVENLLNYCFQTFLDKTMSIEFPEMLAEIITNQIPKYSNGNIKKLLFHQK
Description: EMSA. The following applies: significantly less than 2GR, p<0.01, n=3; EMSA: 20 fmol biotin probe with 2.0 uM GRα or 10 ug nuclear extract; buffer as Hay et al. 2005 with EDTA replaced by 50 uM ZnSO4; competitor 100x; 6% native gel; recombinant protein; residues 1-777; label: 3' biotin.

For some assays here: A weaker result is weaker than the reference pair of the same experiment. For some assays here: Where a protein sequence is shown, tags need not be part of it. For some assays here: For at least one entry, the source does not settle the construct or the ends of the probe. For some assays here: Results from cells or extracts need not show a direct contact. For some assays here: A negative result means that nothing was seen under these conditions.

Regarding “CGAGCACCCTTCACCCTCCAGGCTTAACGG (double strand) [RO (random oligonucleotide)]”, in data set [1] (excess unlabelled vs 2GR probe, label: none (competitor)), the binding result is given as “no binding”.

For the sequence “TAAGTTTATGGTTACAAACTGTTCTTAAAACGAGG (double strand) [GRE-cons]”, the binding result in data set [2] is reported as “binds”; in data set [1] (excess unlabelled almost eliminates complex on 2GR, label: 3' biotin (unlabelled as competitor)), “binds”.

Consider “TTGATTTAGAAGAGGGACCGTATGGTTATAGAACGATG (double strand) [2GR-mut]”, for which the binding result in data set [3] and in data set [4] was “binds more weakly” in each case.

The values above are taken from paper PMC4103484, “Functional effects of polymorphisms on glucocorticoid receptor modulation of human anxiogenic substance-P gene promoter activity in primary amygdala neurones”.
